Experimental findings from US20140037650A1 (UNIVERSITY OF CHICAGO, published 2014) are described below.

Protein sequences, listed by entry. Tags and fused reporters are not part of them. Lines headed by an entry give the natural chain unless they say otherwise; changes in a name come on top.
UniProt P69905: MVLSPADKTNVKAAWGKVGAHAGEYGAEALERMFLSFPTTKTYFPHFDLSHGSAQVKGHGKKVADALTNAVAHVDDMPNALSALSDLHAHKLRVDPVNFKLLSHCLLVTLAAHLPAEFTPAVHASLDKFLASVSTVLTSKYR
UniProt A5IS15: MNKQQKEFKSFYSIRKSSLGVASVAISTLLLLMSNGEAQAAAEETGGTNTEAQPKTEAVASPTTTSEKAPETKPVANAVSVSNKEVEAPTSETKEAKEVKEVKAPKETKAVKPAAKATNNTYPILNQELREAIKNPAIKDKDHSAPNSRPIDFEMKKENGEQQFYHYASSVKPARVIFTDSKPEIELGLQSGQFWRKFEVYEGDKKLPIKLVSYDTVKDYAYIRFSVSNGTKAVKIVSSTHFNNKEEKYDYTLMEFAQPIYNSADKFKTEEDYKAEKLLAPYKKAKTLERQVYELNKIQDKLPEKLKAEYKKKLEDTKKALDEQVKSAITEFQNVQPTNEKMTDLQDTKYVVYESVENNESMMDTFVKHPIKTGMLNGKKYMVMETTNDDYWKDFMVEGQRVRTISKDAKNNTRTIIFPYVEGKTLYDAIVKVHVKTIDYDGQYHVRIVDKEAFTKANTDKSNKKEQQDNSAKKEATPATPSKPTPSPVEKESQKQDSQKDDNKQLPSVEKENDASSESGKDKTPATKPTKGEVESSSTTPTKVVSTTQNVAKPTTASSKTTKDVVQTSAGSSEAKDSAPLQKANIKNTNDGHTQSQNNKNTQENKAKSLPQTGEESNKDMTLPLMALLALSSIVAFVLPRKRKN

These are yes or no findings as the source states them, for the method shown. Some entries that bind do so weakly or less than the wild type.

The assay addresses hemoglobin (human) (UniProt P69905). Put plainly: SPR, His6-tagged protein on NTA chip.

Take “Poly-histidine tagged IsdB (from UniProt A5IS15 41-613)”: the binding result is reported as “binds”.
